{"sequences": {"note": "By UniProt entry, the sequences of proteins in these tests, tags left out. Where a name states a change or a piece, a line headed by the entry shows the natural chain unless it says otherwise.", "UniProt P53602": "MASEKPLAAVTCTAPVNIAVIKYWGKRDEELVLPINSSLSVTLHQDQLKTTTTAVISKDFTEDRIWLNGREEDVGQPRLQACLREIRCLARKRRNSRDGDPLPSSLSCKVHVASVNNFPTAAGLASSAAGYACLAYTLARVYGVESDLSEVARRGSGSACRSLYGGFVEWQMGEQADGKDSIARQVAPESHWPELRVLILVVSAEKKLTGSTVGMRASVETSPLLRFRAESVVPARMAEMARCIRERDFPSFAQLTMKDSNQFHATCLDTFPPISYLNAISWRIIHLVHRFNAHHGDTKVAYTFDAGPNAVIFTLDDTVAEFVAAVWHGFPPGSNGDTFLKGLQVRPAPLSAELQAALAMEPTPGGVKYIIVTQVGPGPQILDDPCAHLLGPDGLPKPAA", "UniProt Q00013": "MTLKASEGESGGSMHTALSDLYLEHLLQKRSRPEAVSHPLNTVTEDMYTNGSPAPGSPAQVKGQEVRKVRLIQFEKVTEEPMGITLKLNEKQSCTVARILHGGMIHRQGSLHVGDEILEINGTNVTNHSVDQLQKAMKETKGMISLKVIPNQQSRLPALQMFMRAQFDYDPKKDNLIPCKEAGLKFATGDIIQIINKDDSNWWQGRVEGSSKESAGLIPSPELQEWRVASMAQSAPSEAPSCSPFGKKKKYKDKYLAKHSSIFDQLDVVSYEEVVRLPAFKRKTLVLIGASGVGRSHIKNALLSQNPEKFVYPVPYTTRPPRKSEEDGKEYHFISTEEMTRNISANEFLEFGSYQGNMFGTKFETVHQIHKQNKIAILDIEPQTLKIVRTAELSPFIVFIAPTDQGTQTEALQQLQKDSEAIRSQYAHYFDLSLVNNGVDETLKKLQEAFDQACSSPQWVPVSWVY", "UniProt Q9NPJ6": "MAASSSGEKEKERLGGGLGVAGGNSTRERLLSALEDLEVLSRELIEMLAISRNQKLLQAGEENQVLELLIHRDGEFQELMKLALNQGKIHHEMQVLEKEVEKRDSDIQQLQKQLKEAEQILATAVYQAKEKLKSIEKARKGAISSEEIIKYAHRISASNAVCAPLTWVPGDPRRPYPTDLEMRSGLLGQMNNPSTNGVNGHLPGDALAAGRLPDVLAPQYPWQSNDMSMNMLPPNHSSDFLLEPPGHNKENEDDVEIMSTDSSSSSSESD", "UniProt P11586, whole entry": "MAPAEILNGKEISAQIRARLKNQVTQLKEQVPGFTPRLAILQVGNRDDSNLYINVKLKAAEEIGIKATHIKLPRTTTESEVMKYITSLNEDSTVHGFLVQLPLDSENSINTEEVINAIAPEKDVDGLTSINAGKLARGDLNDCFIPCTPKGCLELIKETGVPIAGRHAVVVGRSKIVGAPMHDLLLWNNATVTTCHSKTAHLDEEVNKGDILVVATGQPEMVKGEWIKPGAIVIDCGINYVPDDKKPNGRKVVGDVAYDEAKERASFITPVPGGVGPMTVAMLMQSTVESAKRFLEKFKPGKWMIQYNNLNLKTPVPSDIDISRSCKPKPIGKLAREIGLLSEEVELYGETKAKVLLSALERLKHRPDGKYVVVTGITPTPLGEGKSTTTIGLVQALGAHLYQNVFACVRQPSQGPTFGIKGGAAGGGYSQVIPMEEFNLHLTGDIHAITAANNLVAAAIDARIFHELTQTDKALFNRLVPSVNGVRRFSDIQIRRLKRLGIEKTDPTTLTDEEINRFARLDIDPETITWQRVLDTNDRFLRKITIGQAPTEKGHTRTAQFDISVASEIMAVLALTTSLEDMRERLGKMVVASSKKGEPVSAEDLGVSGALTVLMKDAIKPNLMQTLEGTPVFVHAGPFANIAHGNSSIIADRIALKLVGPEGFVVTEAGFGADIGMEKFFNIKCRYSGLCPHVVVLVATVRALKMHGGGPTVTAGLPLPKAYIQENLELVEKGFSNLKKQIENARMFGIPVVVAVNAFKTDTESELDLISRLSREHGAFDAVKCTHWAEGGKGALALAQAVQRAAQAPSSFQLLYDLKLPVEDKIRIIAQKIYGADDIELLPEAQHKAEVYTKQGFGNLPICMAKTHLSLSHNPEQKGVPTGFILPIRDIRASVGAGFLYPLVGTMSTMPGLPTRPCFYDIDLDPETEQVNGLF", "UniProt Q9BRX9": "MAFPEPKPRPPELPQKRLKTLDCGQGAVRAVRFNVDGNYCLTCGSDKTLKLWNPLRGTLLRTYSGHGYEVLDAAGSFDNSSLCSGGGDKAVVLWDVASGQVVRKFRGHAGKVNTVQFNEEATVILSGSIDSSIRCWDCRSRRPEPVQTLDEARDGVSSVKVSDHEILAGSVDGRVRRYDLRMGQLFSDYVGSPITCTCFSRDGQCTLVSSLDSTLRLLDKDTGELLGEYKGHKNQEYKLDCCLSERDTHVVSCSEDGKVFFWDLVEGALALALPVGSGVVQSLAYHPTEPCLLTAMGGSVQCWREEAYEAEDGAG", "UniProt Q7L2J0": "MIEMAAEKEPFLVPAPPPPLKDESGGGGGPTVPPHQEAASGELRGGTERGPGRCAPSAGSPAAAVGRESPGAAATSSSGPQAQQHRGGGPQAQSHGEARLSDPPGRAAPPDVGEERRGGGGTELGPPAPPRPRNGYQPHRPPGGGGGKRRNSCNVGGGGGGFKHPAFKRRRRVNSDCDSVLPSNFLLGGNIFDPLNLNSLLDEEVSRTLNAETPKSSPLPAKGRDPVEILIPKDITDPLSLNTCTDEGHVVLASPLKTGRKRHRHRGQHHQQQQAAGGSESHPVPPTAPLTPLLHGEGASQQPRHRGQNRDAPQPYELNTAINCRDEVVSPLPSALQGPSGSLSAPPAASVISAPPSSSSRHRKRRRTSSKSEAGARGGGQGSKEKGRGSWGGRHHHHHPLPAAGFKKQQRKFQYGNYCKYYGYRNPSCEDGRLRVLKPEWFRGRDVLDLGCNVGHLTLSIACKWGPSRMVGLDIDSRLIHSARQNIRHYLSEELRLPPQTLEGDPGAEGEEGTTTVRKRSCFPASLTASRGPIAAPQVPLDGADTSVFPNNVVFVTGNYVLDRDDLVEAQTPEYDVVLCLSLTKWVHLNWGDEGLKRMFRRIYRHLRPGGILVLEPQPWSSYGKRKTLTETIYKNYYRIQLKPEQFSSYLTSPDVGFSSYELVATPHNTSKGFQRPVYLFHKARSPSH", "UniProt Q96S97": "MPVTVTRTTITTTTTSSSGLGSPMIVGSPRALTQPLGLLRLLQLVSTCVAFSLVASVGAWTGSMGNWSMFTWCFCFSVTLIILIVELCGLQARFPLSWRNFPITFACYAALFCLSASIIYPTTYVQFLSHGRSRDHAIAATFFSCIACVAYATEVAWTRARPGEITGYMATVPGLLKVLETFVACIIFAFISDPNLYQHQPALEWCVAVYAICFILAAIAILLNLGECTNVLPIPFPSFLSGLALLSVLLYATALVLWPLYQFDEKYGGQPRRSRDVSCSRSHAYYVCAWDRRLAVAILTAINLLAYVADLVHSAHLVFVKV", "UniProt Q8NB16": "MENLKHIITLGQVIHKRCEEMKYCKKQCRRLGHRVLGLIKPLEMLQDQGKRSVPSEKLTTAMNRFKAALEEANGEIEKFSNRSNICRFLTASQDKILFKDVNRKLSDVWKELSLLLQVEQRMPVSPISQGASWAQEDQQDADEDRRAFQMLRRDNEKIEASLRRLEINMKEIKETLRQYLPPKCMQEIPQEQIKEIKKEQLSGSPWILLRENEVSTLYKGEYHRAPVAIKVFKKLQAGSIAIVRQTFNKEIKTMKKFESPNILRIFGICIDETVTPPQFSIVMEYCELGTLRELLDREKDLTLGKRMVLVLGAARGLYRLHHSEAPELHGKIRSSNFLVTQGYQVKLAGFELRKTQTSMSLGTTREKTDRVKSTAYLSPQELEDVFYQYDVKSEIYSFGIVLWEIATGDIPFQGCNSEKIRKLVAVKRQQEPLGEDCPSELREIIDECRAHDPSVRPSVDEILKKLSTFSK", "UniProt Q9H7H0": "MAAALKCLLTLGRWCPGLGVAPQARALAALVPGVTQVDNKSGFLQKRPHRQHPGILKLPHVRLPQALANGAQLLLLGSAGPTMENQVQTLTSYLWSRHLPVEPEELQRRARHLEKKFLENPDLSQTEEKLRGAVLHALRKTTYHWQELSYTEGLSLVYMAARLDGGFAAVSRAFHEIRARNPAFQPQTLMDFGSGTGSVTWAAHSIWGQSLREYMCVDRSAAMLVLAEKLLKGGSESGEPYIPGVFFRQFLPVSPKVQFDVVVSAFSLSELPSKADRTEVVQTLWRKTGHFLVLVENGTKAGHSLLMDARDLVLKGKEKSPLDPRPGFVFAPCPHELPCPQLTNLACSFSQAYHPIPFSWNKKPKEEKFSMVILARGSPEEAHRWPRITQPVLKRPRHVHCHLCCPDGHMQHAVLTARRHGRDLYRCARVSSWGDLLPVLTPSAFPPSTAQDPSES", "UniProt Q9NVV4": "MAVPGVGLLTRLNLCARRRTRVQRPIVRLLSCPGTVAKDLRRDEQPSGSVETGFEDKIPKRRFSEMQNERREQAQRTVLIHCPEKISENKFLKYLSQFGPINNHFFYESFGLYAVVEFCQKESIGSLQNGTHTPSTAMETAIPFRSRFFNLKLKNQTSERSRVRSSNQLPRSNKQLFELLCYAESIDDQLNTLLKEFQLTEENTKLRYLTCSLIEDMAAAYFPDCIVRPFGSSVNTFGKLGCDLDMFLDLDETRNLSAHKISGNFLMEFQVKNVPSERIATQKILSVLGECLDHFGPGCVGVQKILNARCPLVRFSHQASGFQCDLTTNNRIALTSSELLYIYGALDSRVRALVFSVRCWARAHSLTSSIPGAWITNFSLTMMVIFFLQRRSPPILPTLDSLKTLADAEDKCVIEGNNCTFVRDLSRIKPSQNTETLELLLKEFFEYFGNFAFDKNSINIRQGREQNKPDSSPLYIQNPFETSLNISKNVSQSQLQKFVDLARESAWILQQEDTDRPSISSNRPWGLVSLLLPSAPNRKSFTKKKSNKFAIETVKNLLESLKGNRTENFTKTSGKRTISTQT", "UniProt P26572": "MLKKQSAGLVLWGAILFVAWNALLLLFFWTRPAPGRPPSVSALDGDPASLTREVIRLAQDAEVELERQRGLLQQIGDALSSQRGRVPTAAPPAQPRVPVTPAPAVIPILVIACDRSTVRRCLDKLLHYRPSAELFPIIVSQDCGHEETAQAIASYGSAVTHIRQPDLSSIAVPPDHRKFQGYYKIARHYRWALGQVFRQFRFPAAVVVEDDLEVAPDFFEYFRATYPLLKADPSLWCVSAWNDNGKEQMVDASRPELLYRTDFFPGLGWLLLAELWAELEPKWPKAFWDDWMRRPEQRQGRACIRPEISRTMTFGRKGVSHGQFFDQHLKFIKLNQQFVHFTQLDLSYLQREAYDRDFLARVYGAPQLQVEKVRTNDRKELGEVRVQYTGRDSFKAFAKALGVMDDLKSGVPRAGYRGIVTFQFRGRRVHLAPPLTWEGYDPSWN", "UniProt Q14165": "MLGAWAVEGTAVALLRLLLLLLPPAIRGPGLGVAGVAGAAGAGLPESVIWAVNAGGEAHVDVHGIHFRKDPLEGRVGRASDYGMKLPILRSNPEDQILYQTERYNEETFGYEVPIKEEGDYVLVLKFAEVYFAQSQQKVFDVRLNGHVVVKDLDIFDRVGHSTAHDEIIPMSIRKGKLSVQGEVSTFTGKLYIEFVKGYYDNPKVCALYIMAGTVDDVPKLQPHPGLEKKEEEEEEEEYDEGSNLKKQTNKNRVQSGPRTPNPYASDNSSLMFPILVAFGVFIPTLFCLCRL", "UniProt Q99417": "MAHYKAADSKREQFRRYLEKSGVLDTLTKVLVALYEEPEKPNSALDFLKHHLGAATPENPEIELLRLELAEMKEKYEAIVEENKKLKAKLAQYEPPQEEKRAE", "UniProt Q9UBU8, whole entry": "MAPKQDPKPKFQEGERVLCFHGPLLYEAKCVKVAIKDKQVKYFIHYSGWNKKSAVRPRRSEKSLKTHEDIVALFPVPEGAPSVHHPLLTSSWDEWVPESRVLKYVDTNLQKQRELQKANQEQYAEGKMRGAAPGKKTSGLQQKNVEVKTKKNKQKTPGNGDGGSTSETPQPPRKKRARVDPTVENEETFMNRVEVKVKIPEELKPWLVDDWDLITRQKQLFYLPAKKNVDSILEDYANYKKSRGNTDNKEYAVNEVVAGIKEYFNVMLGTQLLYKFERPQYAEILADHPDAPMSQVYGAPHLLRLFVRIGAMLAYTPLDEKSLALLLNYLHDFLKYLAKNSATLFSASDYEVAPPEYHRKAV", "UniProt O95396": "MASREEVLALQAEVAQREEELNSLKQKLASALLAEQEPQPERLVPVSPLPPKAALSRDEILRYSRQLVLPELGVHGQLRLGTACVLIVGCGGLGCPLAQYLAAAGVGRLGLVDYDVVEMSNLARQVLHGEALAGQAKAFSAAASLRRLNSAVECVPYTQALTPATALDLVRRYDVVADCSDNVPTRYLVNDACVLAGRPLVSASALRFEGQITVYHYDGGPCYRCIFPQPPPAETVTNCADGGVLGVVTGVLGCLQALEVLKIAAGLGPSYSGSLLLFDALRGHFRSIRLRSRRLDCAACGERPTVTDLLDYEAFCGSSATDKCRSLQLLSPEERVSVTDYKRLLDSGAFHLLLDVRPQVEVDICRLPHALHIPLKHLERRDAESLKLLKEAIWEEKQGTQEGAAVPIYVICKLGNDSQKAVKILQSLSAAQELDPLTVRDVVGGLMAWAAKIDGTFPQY"}, "source": "the supplement of paper PMC7666118", "note": "The other results are listed elsewhere or left out."}
{"compound": "COc1ccc(Cn2ccc3cc(C)c(C(=O)NO)cc32)cc1", "assay": "dose-dependent thermal stabilisation call (2D-TPP, DLPTP, 10% FDR) (binary (1 = stabilised)); higher = stabilised by the compound", "conditions": "system: HL-60 intact cells; concentration range 0.04-10 µM", "protocol": "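2D thermal proteome profiling in intact HL-60 cells treated with BRD-3811 (0, 0.04, 0.29, 2, 10 uM) for 90 min at 37 C, then heated 3 min at one of 12 temperatures (42-63.9 C). Soluble protein was quantified by TMT10 MS. The value is the DLPTP call of the paper: dose-dependent thermal stabilisation over all temperatures at 10% FDR (F-test of a dose-response against a flat model); one experiment, one call per tested protein.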"}
{"target": "MLLT1 (UniProt Q03111)", "dose-dependent thermal stabilisation call": "inactive: 0"}
{"target": "MFSD6 (UniProt Q6ZSS7)", "dose-dependent thermal stabilisation call": "inactive: 0"}
{"target": "MVD (UniProt P53602)", "dose-dependent thermal stabilisation call": "inactive: 0"}
{"target": "METAP1 (UniProt P53582)", "dose-dependent thermal stabilisation call": "inactive: 0"}
{"target": "MTIF2 (UniProt P46199)", "dose-dependent thermal stabilisation call": "inactive: 0"}
{"target": "MEGF8 (UniProt Q7Z7M0)", "dose-dependent thermal stabilisation call": "inactive: 0"}
{"target": "MPP1 (UniProt Q00013)", "dose-dependent thermal stabilisation call": "inactive: 0"}
{"target": "MGC3207", "dose-dependent thermal stabilisation call": "inactive: 0"}
{"target": "MICAL3 (UniProt Q7RTP6)", "dose-dependent thermal stabilisation call": "inactive: 0"}
{"target": "MKI67 (UniProt P46013)", "dose-dependent thermal stabilisation call": "inactive: 0"}
{"target": "MYO1F (UniProt O00160)", "dose-dependent thermal stabilisation call": "inactive: 0"}
{"target": "MED4 (UniProt Q9NPJ6)", "dose-dependent thermal stabilisation call": "inactive: 0"}
{"target": "MMS19 (UniProt Q96T76)", "dose-dependent thermal stabilisation call": "inactive: 0"}
{"target": "MFSD8 (UniProt Q8NHS3)", "dose-dependent thermal stabilisation call": "inactive: 0"}
{"target": "MON1B (UniProt Q7L1V2)", "dose-dependent thermal stabilisation call": "inactive: 0"}
{"target": "MOSPD2 (UniProt Q8NHP6)", "dose-dependent thermal stabilisation call": "inactive: 0"}
{"target": "MRPL17 (UniProt Q9NRX2)", "dose-dependent thermal stabilisation call": "inactive: 0"}
{"target": "MRPL51 (UniProt Q4U2R6)", "dose-dependent thermal stabilisation call": "inactive: 0"}
{"target": "MTHFD1 (UniProt P11586)", "dose-dependent thermal stabilisation call": "inactive: 0"}
{"target": "MON2 (UniProt Q7Z3U7)", "dose-dependent thermal stabilisation call": "inactive: 0"}
{"target": "MORG1 (UniProt Q9BRX9)", "dose-dependent thermal stabilisation call": "inactive: 0"}
{"target": "MRPL38 (UniProt Q96DV4)", "dose-dependent thermal stabilisation call": "inactive: 0"}
{"target": "MEPCE (UniProt Q7L2J0)", "dose-dependent thermal stabilisation call": "inactive: 0"}
{"target": "MYADM (UniProt Q96S97)", "dose-dependent thermal stabilisation call": "inactive: 0"}
{"target": "MKRN1 (UniProt Q9UHC7)", "dose-dependent thermal stabilisation call": "inactive: 0"}
{"target": "MLKL (UniProt Q8NB16)", "dose-dependent thermal stabilisation call": "inactive: 0"}
{"target": "MED14 (UniProt O60244)", "dose-dependent thermal stabilisation call": "inactive: 0"}
{"target": "METT11D1 (UniProt Q9H7H0)", "dose-dependent thermal stabilisation call": "inactive: 0"}
{"target": "MRPS21 (UniProt P82921)", "dose-dependent thermal stabilisation call": "inactive: 0"}
{"target": "MTPAP (UniProt Q9NVV4)", "dose-dependent thermal stabilisation call": "inactive: 0"}
{"target": "MRPS22 (UniProt P82650)", "dose-dependent thermal stabilisation call": "inactive: 0"}
{"target": "MGAT1 (UniProt P26572)", "dose-dependent thermal stabilisation call": "inactive: 0"}
{"target": "MLEC (UniProt Q14165)", "dose-dependent thermal stabilisation call": "inactive: 0"}
{"target": "MYCBP (UniProt Q99417)", "dose-dependent thermal stabilisation call": "inactive: 0"}
{"target": "MORF4L1 (UniProt Q9UBU8)", "dose-dependent thermal stabilisation call": "inactive: 0"}
{"target": "MTMR1 (UniProt Q13613)", "dose-dependent thermal stabilisation call": "inactive: 0"}
{"target": "MED21 (UniProt Q13503)", "dose-dependent thermal stabilisation call": "inactive: 0"}
{"target": "MOCS3 (UniProt O95396)", "dose-dependent thermal stabilisation call": "inactive: 0"}
{"target": "MYCBP2 (UniProt O75592)", "dose-dependent thermal stabilisation call": "inactive: 0"}
{"target": "MTSS1L (UniProt Q765P7)", "dose-dependent thermal stabilisation call": "inactive: 0"}
